Read-outs that look alike come from different tables or passages of the source. No constants are given. Whether binding was seen depends on the method and setting. A result given as binding can be weak or reduced; the word gives no strength. For some of these results: Where a sequence is shown, tags or fusion partners need not be part of it.
How the values were obtained:
Assay in all cases: partitioning into phase-separated FG-domain droplets
[1] = molecular target: Nup116 FG domain (S. cerevisiae) (UniProt Q02630)
[2] = molecular target: Nup116 FG domain (S. cerevisiae) (UniProt Q02630); remark: listed apart in the source
[3] = molecular target: Nup98 FG domain (Homo sapiens) (UniProt P52948)

Amino acid sequences for entries named in this document (tags omitted). A change or cut given only in a name is not applied to a line headed by its entry.
UniProt Q02630: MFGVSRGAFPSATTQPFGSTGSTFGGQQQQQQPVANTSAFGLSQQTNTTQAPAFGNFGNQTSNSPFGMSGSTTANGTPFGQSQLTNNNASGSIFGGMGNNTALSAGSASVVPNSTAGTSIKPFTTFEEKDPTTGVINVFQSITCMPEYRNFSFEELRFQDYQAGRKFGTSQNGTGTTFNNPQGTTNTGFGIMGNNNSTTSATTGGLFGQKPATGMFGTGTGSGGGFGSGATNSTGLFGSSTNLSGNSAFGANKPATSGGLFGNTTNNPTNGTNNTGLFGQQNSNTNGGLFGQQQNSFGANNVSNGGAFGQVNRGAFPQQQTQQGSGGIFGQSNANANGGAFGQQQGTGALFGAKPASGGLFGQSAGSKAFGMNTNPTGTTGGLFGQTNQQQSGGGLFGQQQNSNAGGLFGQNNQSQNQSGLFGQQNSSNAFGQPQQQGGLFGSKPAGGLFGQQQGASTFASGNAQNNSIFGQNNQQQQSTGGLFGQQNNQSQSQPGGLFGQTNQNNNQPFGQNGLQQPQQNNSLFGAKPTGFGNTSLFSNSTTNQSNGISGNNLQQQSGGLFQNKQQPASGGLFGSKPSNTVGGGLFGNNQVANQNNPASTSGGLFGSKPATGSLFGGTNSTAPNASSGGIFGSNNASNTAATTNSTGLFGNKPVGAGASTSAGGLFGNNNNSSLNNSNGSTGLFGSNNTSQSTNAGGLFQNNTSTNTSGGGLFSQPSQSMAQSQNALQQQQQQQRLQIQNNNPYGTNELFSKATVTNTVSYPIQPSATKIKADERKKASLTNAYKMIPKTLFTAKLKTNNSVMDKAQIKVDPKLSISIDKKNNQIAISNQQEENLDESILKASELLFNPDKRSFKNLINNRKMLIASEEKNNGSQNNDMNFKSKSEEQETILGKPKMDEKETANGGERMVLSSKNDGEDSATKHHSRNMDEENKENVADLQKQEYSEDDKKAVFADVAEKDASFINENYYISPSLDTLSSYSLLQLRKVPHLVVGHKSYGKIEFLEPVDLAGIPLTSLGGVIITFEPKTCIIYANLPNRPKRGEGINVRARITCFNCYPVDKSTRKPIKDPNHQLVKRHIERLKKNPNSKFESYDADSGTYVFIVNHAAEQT
UniProt P52948: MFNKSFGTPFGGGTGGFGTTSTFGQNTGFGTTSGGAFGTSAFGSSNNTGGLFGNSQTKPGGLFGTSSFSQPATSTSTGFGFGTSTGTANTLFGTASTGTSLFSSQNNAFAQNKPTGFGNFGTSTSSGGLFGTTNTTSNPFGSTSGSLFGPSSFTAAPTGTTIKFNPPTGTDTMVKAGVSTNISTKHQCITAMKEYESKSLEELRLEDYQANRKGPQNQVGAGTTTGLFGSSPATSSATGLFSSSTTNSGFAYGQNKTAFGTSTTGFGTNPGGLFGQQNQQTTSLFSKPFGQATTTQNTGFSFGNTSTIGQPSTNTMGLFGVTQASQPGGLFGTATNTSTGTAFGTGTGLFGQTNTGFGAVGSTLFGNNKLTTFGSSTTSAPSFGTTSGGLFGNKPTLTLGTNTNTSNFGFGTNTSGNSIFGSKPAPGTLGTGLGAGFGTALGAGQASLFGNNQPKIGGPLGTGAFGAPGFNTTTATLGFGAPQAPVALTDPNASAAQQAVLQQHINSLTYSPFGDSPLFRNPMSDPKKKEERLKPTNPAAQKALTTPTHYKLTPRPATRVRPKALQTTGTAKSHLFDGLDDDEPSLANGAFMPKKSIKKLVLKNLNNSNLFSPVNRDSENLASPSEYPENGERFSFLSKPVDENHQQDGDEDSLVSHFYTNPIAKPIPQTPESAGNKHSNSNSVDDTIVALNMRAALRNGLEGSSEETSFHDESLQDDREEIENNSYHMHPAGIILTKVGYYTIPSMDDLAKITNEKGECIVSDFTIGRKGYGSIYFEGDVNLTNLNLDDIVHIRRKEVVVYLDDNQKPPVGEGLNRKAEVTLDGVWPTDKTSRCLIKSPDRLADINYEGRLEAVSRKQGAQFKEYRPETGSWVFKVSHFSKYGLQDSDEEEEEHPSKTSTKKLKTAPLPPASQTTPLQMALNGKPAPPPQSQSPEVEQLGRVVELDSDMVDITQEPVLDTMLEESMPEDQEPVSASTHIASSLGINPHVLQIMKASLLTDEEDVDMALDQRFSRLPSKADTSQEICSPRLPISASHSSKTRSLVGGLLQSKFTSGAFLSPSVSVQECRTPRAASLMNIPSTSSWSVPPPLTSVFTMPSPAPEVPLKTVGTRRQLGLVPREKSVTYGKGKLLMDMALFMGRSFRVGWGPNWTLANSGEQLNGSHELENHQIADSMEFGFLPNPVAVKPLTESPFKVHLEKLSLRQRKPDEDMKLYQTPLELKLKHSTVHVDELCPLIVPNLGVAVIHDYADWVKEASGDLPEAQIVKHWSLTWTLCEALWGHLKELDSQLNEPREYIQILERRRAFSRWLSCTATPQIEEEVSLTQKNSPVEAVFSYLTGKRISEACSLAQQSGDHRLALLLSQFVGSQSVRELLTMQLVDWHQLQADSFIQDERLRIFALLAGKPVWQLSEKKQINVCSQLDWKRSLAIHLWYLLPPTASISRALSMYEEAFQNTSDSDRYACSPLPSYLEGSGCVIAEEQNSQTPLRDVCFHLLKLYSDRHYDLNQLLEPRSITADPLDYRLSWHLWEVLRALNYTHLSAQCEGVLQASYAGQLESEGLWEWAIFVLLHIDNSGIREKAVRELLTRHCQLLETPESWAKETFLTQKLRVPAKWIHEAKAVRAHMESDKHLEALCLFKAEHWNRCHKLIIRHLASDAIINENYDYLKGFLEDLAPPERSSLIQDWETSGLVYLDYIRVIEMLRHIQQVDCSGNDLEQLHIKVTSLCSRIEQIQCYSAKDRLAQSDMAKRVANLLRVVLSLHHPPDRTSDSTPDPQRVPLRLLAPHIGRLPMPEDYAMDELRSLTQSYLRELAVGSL
UniProt O75190: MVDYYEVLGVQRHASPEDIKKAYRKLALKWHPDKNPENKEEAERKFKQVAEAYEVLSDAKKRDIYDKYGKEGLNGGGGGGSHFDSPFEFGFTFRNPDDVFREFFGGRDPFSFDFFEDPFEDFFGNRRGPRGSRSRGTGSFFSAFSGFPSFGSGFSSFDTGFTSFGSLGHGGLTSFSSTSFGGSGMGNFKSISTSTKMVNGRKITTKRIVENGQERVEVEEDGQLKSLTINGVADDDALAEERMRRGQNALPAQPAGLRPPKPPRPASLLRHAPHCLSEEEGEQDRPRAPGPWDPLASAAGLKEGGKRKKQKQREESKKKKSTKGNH

## mCherry-DNAJB6-His10 (from UniProt O75190 1-326)
[1]
  binding: binds

B1: MLF2-GFP-FLAG (protein, UniProt Q15773 1-248)
chain: MFRFMRDVEPEDPMFLMDPFAIHRQHMSRMLSGGFGYSPFLSITDGNMPGTRPASRRMQQAGAVSPFGMLGMSGGFMDMFGMMNDMIGNMEHMTAGGNCQTFSSSTVISYSNTGDGAPKVYQETSEMRSAPGGIRETRRTVRDSDSGLEQMSIGHHIRDRAHILQRSRNHRTGDQEERQDYINLDESEAAAFDDEWRRETSRFRQQRPLEFRRLESSGAGGRRAEGPPRLAIQGPEDSPSRQSRRYDW
[2]
  binding: binds
[3]
  binding: binds

B2: untagged MLF2 (protein, UniProt Q15773 1-248)
chain: B1 chain
[2]
  binding: binds
